Assay [1] has as its system clinical isolates of P. acnes displaying antibiotic-resistant phenotypes. As to the kind of experiment: MIC against clinical isolates of P. acnes displaying antibiotic-resistant phenotypes (Table 2). Format: cell-based, Propionibacterium acnes. To be noted: for Cumul. %: resistant isolates.
The test system of assay [2] is clinical isolates of P. acnes displaying antibiotic-sensitive phenotypes. Nature of the assay: MIC against clinical isolates of P. acnes displaying antibiotic-sensitive phenotypes (Table 3). To be noted: for Cumul. %: sensitive isolates. It counts as cell-based, Propionibacterium acnes.
Setting [3] is: Cutibacterium acnes, 15 isolates resistant to clindamycin or erythromycin.

In brackets after ≈: the same amount, converted by molar mass.

Broadly, the MIC50 is the lowest concentration that inhibits either 50% of growth or 50% of the strains tested, depending on the study. The MIC90 is an inhibitory concentration at the 90% level, which refers to growth in some studies and to a panel of isolates in others. Read a low MIC90 as higher susceptibility. `CCC[C@@H]1C[C@@H](C(=O)N[C@@H]([C@H]2O[C@H](SC)[C@H](O)[C@@H](O)[C@H]2O)[C@H](C)Cl)N(C)C1` [Clindamycin]: the MIC50 stood at 64 mg/L (≈ 151 µM) in assay [1] (setting [3]) and 0.125 mg/L (≈ 0.294 µM) in assay [2] (Cutibacterium acnes). The MIC90 is 256 mg/L (≈ 602 µM) in assay [1] (setting [3]); 0.5 mg/L (≈ 1.18 µM) in assay [2] (Cutibacterium acnes, 5 isolates sensitive to erythromycin and clindamycin). The “N° isolates” value is listed as 3 in assay [1] (resistant isolates with MIC 4 μg/ml); 2 in assay [1] (resistant isolates with MIC 8 μg/ml); 0 in assay [1] (resistant isolates with MIC 16 μg/ml); 0 in assay [1] (resistant isolates with MIC 32 μg/ml); 8 in assay [1] (resistant isolates with MIC 64 μg/ml); 0 in assay [1] (resistant isolates with MIC 128 μg/ml). The “N° isolates” value in assay [1] (resistant isolates with MIC 256 μg/ml) is given as 2; in assay [2] (sensitive isolates with MIC 0.125 μg/ml) it was 3; in assay [2] (sensitive isolates with MIC 0.25 μg/ml), 1; in assay [2] (sensitive isolates with MIC 0.5 μg/ml), 1. The Cumul. % was found to be 20% in assay [1] (cumulative at MIC 4 μg/ml); 33% in assay [1] (cumulative at MIC 8 μg/ml); 87% in assay [1] (cumulative at MIC 64 μg/ml); 100% in assay [1] (cumulative at MIC 256 μg/ml); 60% in assay [2] (cumulative at MIC 0.125 μg/ml); 80% in assay [2] (cumulative at MIC 0.25 μg/ml). Also, the Cumul. % in assay [2] (cumulative at MIC 0.5 μg/ml) worked out at 100%.

For the origin of these results see patent publication US7655676B2, “Use of amide derivative of GE 2270 factor A3 for the treatment of acne” (Naicons S.C.A.R.L., priority 2002, dated 2010).
